{"source": "PubChem BioAssay AID743454 (Peter MacCallum Cancer Centre, 2014)", "aim": "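Genes whose loss kills vorinostat-resistant colon cancer cells under vorinostat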 (primary screen)", "cell system": "human HCT116-VR colon cancer cells, selected for vorinostat resistance", "reagent": "siRNA pool against human genes, 40 nM siRNA pool", "duration": "vorinostat for 24 h, read-out about 72 h after transfection", "challenge": "vorinostat at 2.5 µM final", "read-out": "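Cell viability by CellTiter-Fluor and caspase 3/7 activity by luminescence, each scaled to mock wells per plate, duplicates averaged, then robust z-scored over all plates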", "direction": "viability robust z-score: higher = more viable cells than screen typical; caspase robust z-score: higher = more caspase 3/7 activity than screen typical", "rule for the call": "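a knock-down is a hit when classed RV1 or RV2 for lowered viability, or CA1 or CA2 for caspase activation; those lethal without drug were dropped; hits were retested singly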", "note": "The whole screen tested about 18,000 reagents; this is a random part of them. 450 of all reagents (2.5%) were called active. 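Single biological run; no consistent viability z cut-off exists, so the class columns, not z-scores, define the calls.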 Reagent sequences are not shown."}
The first 2 entries as a preview:
{"Target gene":"LPAR4 (lysophosphatidic acid receptor 4)","PubChem SID":"SID134311000","viability hit class":"no change","caspase hit class":"no change","viability robust z-score":-1.82,"caspase robust z-score":4.05,"call":"inactive"}
{"Target gene":"APOO (apolipoprotein O)","PubChem SID":"SID134318483","viability hit class":"no change","caspase hit class":"no change","viability robust z-score":-1.02,"caspase robust z-score":0.97,"call":"inactive"}

The listing, from the start:
{"Target gene":"LPAR4 (lysophosphatidic acid receptor 4)","PubChem SID":"SID134311000","viability hit class":"no change","caspase hit class":"no change","viability robust z-score":-1.82,"caspase robust z-score":4.05,"call":"inactive"}
{"Target gene":"APOO (apolipoprotein O)","PubChem SID":"SID134318483","viability hit class":"no change","caspase hit class":"no change","viability robust z-score":-1.02,"caspase robust z-score":0.97,"call":"inactive"}
{"Target gene":"PCDHA5 (protocadherin alpha 5)","PubChem SID":"SID134317488","viability hit class":"no change","caspase hit class":"no change","viability robust z-score":0.97,"caspase robust z-score":-0.74,"call":"inactive"}
{"Target gene":"SLC17A4","PubChem SID":"SID134312462","viability hit class":"no change","caspase hit class":"no change","viability robust z-score":-0.87,"caspase robust z-score":-0.12,"call":"inactive"}
{"Target gene":"KCNQ3 (potassium voltage-gated channel subfamily Q member 3)","PubChem SID":"SID134311691","viability hit class":"no change","caspase hit class":"no change","viability robust z-score":-1.34,"caspase robust z-score":2.95,"call":"inactive"}
{"Target gene":"TPBG (trophoblast glycoprotein)","PubChem SID":"SID135620810","viability hit class":"no change","caspase hit class":"no change","viability robust z-score":-0.5,"caspase robust z-score":-0.86,"call":"inactive"}
{"Target gene":"PSG5 (pregnancy specific beta-1-glycoprotein 5)","PubChem SID":"SID134320002","viability hit class":"no change","caspase hit class":"no change","viability robust z-score":-1.17,"caspase robust z-score":-0.88,"call":"inactive"}
{"Target gene":"CALHM5 (calcium homeostasis modulator family member 5)","PubChem SID":"SID152149745","viability hit class":"no change","caspase hit class":"no change","viability robust z-score":-0.92,"caspase robust z-score":0.78,"call":"inactive"}
{"Target gene":"ZNF154 (zinc finger protein 154)","PubChem SID":"SID152152824","viability hit class":"no change","caspase hit class":"no change","viability robust z-score":-1.48,"caspase robust z-score":0.44,"call":"inactive"}
{"Target gene":"EFCAB14 (EF-hand calcium binding domain 14)","PubChem SID":"SID152150274","viability hit class":"no change","caspase hit class":"no change","viability robust z-score":-3.3,"caspase robust z-score":1.44,"call":"inactive"}
{"Target gene":"BRD9 (bromodomain containing 9)","PubChem SID":"SID152147069","viability hit class":"no change","caspase hit class":"no change","viability robust z-score":0.8,"caspase robust z-score":-0.01,"call":"inactive"}
{"Target gene":"MIOS (meiosis regulator for oocyte development)","PubChem SID":"SID152156318","viability hit class":"no change","caspase hit class":"no change","viability robust z-score":1.61,"caspase robust z-score":0.24,"call":"inactive"}
{"Target gene":"CCDC85B (coiled-coil domain containing 85B)","PubChem SID":"SID134316591","viability hit class":"no change","caspase hit class":"no change","viability robust z-score":-1.12,"caspase robust z-score":0.29,"call":"inactive"}
{"Target gene":"ZNF627 (zinc finger protein 627)","PubChem SID":"SID135625035","viability hit class":"no change","caspase hit class":"no change","viability robust z-score":0.59,"caspase robust z-score":-0.72,"call":"inactive"}
{"Target gene":"CHKA (choline kinase alpha)","PubChem SID":"SID135621235","viability hit class":"no change","caspase hit class":"no change","viability robust z-score":-0.36,"caspase robust z-score":0.66,"call":"inactive"}
{"Target gene":"ADAD2 (adenosine deaminase domain containing 2)","PubChem SID":"SID134322557","viability hit class":"no change","caspase hit class":"no change","viability robust z-score":-0.11,"caspase robust z-score":-0.56,"call":"inactive"}
{"Target gene":"SCN10A (sodium voltage-gated channel alpha subunit 10)","PubChem SID":"SID152155174","viability hit class":"no change","caspase hit class":"no change","viability robust z-score":0.48,"caspase robust z-score":0.9,"call":"inactive"}
{"Target gene":"KMT5C (lysine methyltransferase 5C)","PubChem SID":"SID135623561","viability hit class":"no change","caspase hit class":"no change","viability robust z-score":-1.36,"caspase robust z-score":0.88,"call":"inactive"}
{"Target gene":"SLC7A6","PubChem SID":"SID134312662","viability hit class":"no change","caspase hit class":"no change","viability robust z-score":-1.21,"caspase robust z-score":0.9,"call":"inactive"}
{"Target gene":"ICOS (inducible T cell costimulator)","PubChem SID":"SID134316680","viability hit class":"no change","caspase hit class":"no change","viability robust z-score":0.32,"caspase robust z-score":-0.7,"call":"inactive"}
{"Target gene":"RGS11 (regulator of G protein signaling 11)","PubChem SID":"SID134314166","viability hit class":"no change","caspase hit class":"no change","viability robust z-score":-0.26,"caspase robust z-score":-0.3,"call":"inactive"}
